# PMC11330866
# Results are given in words; binding and its absence hold for the method and conditions named. In cells and extracts the contact can be indirect. Some results given as binding are weak or reduced against the parent protein; the word gives no strength.
# Target: SARS-CoV-2-encoded translational regulator Nsp1 (SARS-CoV-2) (UniProt P0DTD1)
# Assay: co-IP; lysates of cancer cells in NP40 IP-lysis buffer with protease inhibitors; primary antibody overnight at 4 °C, A/G agarose beads 2 h, three washes in PBS; western blot; 5× of input sample used; which protein was precipitated not given
substance,measurement,value
ASCC3 (from UniProt Q8N3C0 1-2202),binding,binds
